In US4665224A, “Ester of (+) 6-methoxy-α-methyl-2-naphthalene acetic acid having mucosecretolytic, anti-inflammatory, analgesic, antipyretic activity, a process for its preparation and pharmaceutical compositions thereof” (priority 1984, dated 1987) one finds LD50 and TD50 data, which are given here for 1 compound.

One data set is described as follows: in vivo. The note with it: mouse, po. The procedure:
Method for studying the lethal dose 50 (LD50) in the mouse after a single administration.
Groups of 10 Swiss albine, female, adult mice (20-22 grams of body weight) fasting from the evening preceding the test, are treated orally with varying doses of the test drup suspended into hydroxyethylcellulose (0.5% w/v.)
Thereafter, the animals are fed again.

A short description of data set [1]: Gastric tolerability, gastric ulcerogenesys by repeated drug administrations. On the set-up: species or system rat (Wistar albine, female). The note with it: in vivo; rat, oral for 5 days, daily dose, fed rats; read-out: Ulcerogenic dose 50% (UD50 in mg/kg os.). Here is the method: Method of gastric ulcerogenesys by repeated drug administrations.
Fed female Wistar albine rats (140-160 g of initial body weight) are used.
The test drug is administered orally for 5 days. At the end of the experiment, the rat's stomach is withdrawn, it is dissected along the lesser curvature, washed and observed in order to disclose the presence of either gastric lesions or manifest submucosa hemorrhages.

One may read the LD50 as the dose at which mortality reaches 50%. A high value points to lower toxicity. `COc1ccc2cc([C@H](C)C(=O)O)ccc2c1` [(+)6-methoxy-α-methyl-2-naphthalene acetic acid, reference compound] showed an LD50 at 336 h in the data set “in vivo” of 885 mg/kg. Besides, the TD50 at 120 h in data set [1] was found to be 30 mg/kg.
